# PubChem BioAssay AID686938, Drosophila RNAi Screening Center, 2013
# Aim: 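Looking for CRAC channel components and the factors controlling them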 (primary screen)
# System: Drosophila S2R+ cells
# Reagent: long dsRNA against Drosophila genes, about 0.25 µg dsRNA per well, roughly 10,000 cells
# Duration: 5 days of knock-down before the calcium assay
# Conditions: thapsigargin (SERCA pump blocker) to empty calcium stores; entry signal taken 4 min after adding it
# Read-out: 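Per-well fluo-4 fluorescence in two replicates, unnormalised, measured in resting cells and 4 min after store depletion by the SERCA blocker thapsigargin; ratio of the two present in few wells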
# Reading the numbers: calcium entry signal: higher = stronger calcium signal after store depletion; resting calcium signal: higher = higher resting calcium signal
# Rule for the call: 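Hit if the duplicate-averaged plate z-score for entry over resting signal is under −3; wells with weak total dye signal (Fmax z < −2) or more than 5 off-targets removed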
# Meaning of the calls: active = strongly reduced calcium entry; inactive = no strong reduction
# The screen tested about 23,000 reagents; below is an unselected part of those with a known target gene and a result. Over the whole deposit, 75 (0.33%) are marked active. 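Raw plate signals without normalisation; calls rest on plate z-scores that were not deposited; ratio present for only 364 wells.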 Reagents against one gene are numbered here. Names joined by + are all predicted targets of the reagent. The record does not give: the dose of the treatment.
gene,dsRNA no.,"calcium entry signal, replicate 1 (fluorescence units)","calcium entry signal, replicate 2 (fluorescence units)","resting calcium signal, replicate 1 (fluorescence units)","resting calcium signal, replicate 2 (fluorescence units)",call
Proc-R,1,2.75e7,4.19e7,1.36e7,1.96e7,inactive
CheB93b,1,3.55e7,3.10e7,2.06e7,1.46e7,inactive
Chpf,1,3.35e7,3.98e7,1.66e7,1.81e7,inactive
Chpf,2,3.60e7,3.77e7,1.70e7,1.79e7,inactive
mad2,1,3.10e7,3.03e7,1.92e7,1.72e7,inactive
CG13177,1,3.00e7,2.43e7,1.46e7,1.04e7,inactive
Atxn7,1,4.31e7,,2.63e7,,inactive
Atxn7,2,3.72e7,2.89e7,2.24e7,1.47e7,inactive
CG12106,1,3.04e7,3.18e7,1.50e7,1.52e7,inactive
Aven,1,2.34e7,3.32e7,1.24e7,1.56e7,inactive
CG17224,1,2.05e7,2.18e7,1.10e7,1.04e7,inactive
CG13390,1,2.54e7,5.61e7,1.32e7,2.17e7,inactive
Orai,1,3.58e7,3.03e7,1.75e7,1.73e7,inactive
Orai,2,2.10e7,2.73e7,1.64e7,2.06e7,active
Ir60a,1,3.30e7,4.27e7,1.80e7,1.96e7,inactive

In a second layout: entries from further up.
gene | dsRNA no. | calcium entry signal, replicate 1 (fluorescence units) | calcium entry signal, replicate 2 (fluorescence units) | resting calcium signal, replicate 1 (fluorescence units) | resting calcium signal, replicate 2 (fluorescence units) | call
Atxn7 | 1 | 4.31e7 | – | 2.63e7 | – | inactive
Atxn7 | 2 | 3.72e7 | 2.89e7 | 2.24e7 | 1.47e7 | inactive

The results go on.
gene,dsRNA no.,"calcium entry signal, replicate 1 (fluorescence units)","calcium entry signal, replicate 2 (fluorescence units)","resting calcium signal, replicate 1 (fluorescence units)","resting calcium signal, replicate 2 (fluorescence units)",call
CG12640,1,2.81e7,6.67e7,1.68e7,2.86e7,inactive
GluRIIB,1,2.45e7,2.78e7,1.27e7,1.26e7,inactive
CG11353,1,6.17e7,4.68e7,3.82e7,1.80e7,inactive
DIP-beta,1,2.81e7,3.55e7,1.41e7,1.59e7,inactive
DIP-beta,2,5.37e7,5.29e7,2.43e7,2.33e7,inactive
DIP-beta,3,5.53e7,4.76e7,2.29e7,2.03e7,inactive
DIP-beta,4,6.08e7,2.72e7,2.42e7,1.29e7,inactive
CG13380 + CG4174,1,4.43e7,5.11e7,2.02e7,3.38e7,inactive
CG13380 + CG4174,2,4.36e7,6.96e7,2.02e7,2.82e7,inactive
